# Test results: publication doi:10.1101/680967
# Chains of the proteins cited; added tags and fusions are not shown.
# UniProt P49327: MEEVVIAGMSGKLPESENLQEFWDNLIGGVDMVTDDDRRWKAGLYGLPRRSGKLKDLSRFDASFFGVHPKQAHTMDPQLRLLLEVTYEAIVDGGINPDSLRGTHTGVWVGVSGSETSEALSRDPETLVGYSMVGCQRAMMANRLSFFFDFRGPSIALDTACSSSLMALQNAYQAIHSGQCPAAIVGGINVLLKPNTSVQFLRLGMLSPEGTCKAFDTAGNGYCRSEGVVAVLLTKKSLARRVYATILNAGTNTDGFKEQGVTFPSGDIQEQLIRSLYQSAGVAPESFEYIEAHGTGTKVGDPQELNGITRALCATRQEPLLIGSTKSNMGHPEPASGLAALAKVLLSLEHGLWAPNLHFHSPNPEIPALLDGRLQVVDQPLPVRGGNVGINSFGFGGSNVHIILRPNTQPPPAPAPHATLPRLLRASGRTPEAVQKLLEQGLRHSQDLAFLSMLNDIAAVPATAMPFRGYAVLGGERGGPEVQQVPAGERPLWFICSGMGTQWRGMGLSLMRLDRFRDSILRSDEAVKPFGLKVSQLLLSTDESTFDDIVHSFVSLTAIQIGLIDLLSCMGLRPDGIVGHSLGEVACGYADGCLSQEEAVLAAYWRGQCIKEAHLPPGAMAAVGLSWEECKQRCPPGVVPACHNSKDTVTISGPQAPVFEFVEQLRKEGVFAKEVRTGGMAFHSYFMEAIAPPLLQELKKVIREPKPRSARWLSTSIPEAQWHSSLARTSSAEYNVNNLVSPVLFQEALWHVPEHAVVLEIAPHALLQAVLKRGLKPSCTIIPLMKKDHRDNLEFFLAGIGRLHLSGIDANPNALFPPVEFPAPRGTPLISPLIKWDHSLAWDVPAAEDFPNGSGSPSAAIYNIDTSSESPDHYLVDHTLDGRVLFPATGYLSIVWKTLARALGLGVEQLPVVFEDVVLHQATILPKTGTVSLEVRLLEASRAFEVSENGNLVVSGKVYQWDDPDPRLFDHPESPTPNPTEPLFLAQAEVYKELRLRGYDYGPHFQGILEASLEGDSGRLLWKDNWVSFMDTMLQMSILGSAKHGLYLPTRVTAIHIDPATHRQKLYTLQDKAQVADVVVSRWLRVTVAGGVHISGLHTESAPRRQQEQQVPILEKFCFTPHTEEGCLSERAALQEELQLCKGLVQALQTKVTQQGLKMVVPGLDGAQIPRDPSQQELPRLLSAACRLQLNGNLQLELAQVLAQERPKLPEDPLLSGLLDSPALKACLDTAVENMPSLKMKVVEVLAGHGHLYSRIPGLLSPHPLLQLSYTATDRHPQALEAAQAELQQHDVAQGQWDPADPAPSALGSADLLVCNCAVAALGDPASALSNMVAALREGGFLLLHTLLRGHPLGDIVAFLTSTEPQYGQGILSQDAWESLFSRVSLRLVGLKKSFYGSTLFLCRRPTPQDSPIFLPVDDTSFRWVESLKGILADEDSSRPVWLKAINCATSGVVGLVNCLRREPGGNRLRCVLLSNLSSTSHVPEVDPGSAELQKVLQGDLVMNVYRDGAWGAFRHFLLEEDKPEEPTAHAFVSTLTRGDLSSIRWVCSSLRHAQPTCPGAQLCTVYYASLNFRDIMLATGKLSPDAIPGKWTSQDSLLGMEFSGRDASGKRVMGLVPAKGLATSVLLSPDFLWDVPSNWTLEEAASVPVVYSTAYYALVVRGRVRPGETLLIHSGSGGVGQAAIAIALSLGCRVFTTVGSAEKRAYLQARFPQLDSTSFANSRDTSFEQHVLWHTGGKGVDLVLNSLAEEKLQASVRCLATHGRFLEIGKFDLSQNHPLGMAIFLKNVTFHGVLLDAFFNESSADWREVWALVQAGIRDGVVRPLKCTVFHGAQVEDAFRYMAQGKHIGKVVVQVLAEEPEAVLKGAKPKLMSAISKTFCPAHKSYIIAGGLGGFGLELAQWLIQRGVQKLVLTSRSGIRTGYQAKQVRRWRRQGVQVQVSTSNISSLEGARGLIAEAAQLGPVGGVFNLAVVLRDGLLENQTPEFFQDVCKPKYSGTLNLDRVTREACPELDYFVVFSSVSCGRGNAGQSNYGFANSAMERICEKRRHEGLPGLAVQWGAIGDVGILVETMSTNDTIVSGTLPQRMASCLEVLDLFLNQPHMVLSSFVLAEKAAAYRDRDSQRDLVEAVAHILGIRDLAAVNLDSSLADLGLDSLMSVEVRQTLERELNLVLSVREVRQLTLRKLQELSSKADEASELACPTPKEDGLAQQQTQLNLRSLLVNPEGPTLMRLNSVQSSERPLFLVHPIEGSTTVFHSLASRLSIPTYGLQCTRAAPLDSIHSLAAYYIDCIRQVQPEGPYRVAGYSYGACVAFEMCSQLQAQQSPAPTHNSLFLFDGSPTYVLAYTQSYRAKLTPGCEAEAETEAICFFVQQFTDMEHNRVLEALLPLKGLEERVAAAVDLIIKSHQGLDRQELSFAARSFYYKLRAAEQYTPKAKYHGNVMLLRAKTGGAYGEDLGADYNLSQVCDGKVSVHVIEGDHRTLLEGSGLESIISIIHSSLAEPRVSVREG
# No constants are given. Whether binding was seen depends on the method and setting. Binding seen in cells or lysates may run through a third protein. Some entries that bind do so weakly or less than the wild type.
# B1: APOC2 (apolipoprotein C2), endogenous (protein, UniProt P02655 23-101)
# chain: TQQPQQDEMPSPTFLTQVKESLSSYWESAKTAAQNLYEKTYLPAVDEKLRDLYSKSTAAMSTYTGIFTDQVLSVLKGEE
# Target: FASN (fatty acid synthase) (human (endogenous in RKO and SW620)) (UniProt P49327)
# Assay: co-IP
binder,measurement,value
B1,binding,binds
